Experimental data taken from article PMC8481269.
No constants are given. Whether binding was seen depends on the method and setting. In cells and extracts the contact can be indirect. Some binding calls cover weakened binding; strength is not graded here.

The chains behind the UniProt entries cited, without tags or fusion partners.
UniProt Q15746: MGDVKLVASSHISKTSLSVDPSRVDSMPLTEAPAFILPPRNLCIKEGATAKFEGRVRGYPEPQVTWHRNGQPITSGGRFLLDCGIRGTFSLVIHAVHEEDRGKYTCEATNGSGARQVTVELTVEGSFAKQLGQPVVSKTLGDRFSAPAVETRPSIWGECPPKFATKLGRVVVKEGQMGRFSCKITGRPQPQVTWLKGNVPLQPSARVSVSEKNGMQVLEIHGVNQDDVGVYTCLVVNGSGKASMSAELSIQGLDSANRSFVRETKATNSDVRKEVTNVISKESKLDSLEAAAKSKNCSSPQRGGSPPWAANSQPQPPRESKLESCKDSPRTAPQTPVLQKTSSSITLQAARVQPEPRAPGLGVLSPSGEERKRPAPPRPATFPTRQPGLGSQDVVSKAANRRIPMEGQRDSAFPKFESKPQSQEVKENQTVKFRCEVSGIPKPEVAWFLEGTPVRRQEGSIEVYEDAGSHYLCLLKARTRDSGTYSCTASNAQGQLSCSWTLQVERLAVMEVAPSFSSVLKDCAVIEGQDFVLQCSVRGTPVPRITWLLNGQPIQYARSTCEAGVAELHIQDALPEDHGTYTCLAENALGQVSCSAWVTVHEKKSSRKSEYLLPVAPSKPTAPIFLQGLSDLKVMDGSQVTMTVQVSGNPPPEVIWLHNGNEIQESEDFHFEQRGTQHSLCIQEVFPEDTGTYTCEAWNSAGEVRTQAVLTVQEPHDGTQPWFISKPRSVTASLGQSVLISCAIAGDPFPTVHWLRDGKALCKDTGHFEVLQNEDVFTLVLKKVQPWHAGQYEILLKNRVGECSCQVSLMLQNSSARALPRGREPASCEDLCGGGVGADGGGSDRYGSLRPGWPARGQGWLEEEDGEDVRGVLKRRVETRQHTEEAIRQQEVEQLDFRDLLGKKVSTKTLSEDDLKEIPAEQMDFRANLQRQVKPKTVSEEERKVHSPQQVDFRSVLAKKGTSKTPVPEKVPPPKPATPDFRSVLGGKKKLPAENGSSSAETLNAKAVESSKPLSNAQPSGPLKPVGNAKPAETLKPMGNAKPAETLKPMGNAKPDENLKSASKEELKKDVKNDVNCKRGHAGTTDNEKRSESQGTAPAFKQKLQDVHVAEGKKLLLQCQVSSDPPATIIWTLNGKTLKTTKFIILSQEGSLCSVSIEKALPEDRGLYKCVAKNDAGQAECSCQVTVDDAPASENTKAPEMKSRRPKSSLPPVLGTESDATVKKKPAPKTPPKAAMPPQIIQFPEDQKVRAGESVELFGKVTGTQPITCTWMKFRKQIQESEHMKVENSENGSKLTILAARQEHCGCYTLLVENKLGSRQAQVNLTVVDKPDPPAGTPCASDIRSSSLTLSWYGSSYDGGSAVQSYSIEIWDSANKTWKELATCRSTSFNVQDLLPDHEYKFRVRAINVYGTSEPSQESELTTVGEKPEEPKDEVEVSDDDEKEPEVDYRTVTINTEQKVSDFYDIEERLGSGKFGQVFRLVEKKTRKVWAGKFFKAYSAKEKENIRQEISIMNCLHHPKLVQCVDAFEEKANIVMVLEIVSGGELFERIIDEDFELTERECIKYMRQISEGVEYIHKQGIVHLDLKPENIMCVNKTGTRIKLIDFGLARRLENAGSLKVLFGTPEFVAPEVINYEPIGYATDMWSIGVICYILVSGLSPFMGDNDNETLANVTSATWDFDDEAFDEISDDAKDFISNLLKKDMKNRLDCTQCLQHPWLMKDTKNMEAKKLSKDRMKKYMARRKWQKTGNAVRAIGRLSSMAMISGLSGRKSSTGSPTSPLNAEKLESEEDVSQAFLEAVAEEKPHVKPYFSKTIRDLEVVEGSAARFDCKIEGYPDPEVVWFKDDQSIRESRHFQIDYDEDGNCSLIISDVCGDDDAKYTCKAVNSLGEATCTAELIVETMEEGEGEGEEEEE
UniProt Q14790: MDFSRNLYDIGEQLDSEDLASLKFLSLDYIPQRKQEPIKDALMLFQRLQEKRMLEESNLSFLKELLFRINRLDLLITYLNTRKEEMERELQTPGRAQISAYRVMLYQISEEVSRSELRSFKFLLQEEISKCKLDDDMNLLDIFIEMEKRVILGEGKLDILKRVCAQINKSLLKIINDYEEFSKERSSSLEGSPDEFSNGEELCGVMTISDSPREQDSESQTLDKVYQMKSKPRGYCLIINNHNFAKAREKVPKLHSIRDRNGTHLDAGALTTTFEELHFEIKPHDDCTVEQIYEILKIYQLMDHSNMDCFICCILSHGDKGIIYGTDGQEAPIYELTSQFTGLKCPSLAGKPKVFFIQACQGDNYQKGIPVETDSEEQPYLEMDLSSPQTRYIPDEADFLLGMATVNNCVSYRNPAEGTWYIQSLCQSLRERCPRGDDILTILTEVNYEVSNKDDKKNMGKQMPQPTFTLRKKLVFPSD
UniProt Q99836: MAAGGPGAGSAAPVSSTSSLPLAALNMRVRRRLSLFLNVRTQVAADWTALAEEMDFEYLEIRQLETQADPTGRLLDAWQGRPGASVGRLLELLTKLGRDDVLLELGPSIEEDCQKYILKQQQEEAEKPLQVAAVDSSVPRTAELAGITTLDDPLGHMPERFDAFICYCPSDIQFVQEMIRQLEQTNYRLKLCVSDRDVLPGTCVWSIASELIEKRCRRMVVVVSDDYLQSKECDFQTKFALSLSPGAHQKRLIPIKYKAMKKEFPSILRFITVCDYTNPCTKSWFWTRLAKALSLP

Key:
Assay in all cases: co-IP; endogenous proteins in HepG2 lysates (IP lysis buffer); antibody (anti-nmMYLK, anti-MyD88 or anti-Caspase-8) and magnetic beads at 4 °C all night, washed in PBS, western blot; cells with or without LPS, shCTR or shnmMYLK
[1] = biological target: nonmuscle isoform of myosin light chain kinase (human (endogenous in HepG2)) (UniProt Q15746)
[2] = biological target: Caspase-8 (human (endogenous in HepG2)) (UniProt Q14790)
[3] = biological target: MyD88 (human (endogenous in HepG2)) (UniProt Q99836)

binding [1] | binding [2] | binding [3] | Substance
binds | binds | – | MyD88 (from UniProt Q99836 1-296)
– | no binding | binds | nonmuscle isoform of myosin light chain kinase (from UniProt Q15746 1-1914)
– | – | binds | Caspase-8 (from UniProt Q14790 1-479)
